US10973867B2, “Compositions and methods for treating retinopathy” (Marshall University Research Corporation, priority 2015, dated 2021)

Key:
HRMECs = assay: Matrigel assay, angiogenic capillary tube formation of HRMECs; assay type: cell-based, human; conditions: 24 hours
Method: Normal human primary retinal endothelial cells (HRMECs) were purchased from Cell Systems, WA. They were maintained in endothelial basal medium (EBM) containing growth factors and supplemented with 5% fetal bovine serum (FBS), prepared according to the manufacturer's protocol (referred hereafter as EGM-2 complete media). The EBM medium and supplements were purchased from Lonza (Basel, Switzerland). All experiments using HRMECs were performed between passages 3-8. During experiments, HRMECs were incubated in EGM-2 reduced media (referred hereafter as EGM-R media), which was comprised of EBM media containing ¼ the concentration of growth factors and 0.5% FBS.
To measure the effect of increase pNaKtide on HRMECs, cells were treated to promote differentiation of the cells into capillary tube-like structures. Cells were subsequently harvested, seeded on polymerized matrigel and supplemented with 0.5 μM, 1 μM, and 5 μM of pNaKtide and incubated for 24 hours. Further investigation of the effect of pNaKtide on angiogenesis and VEGF expression was performed in tumor xenograft models as described herein.
Growth Factor Reduced (GFR)-Matrigel (BD Biosciences, Bedford, Mass.) was used to promote the differentiation of HRMECs' into capillary tube-like structures. […]

[1] = test system: human retinal microvascular endothelial cells (HRMECs); assay: BrdU assay, proliferation of HRMECs; assay type: cell-based; conditions: 24 hours; pNaKtide at 0.5, 1 and 5 micromolar, dose dependent
Method: To measure the effect of increased pNaKtide on HRMECs, cells were incubated with bromodeoxyuridine (BrdU), a nucleotide analog that is incorporated during S-phase in the DNA of proliferating cells. After overnight incubation, the cells were treated with 0.1 μM, 1 μM, and 5 μM of pNaKtide for 24 hours. The number of BrdU positive cells were then counted as an indication of cell proliferation.
Normal human primary retinal endothelial cells (HRMECs) were purchased from Cell Systems, WA. They were maintained in endothelial basal medium (EBM) containing growth factors and supplemented with 5% fetal bovine serum (FBS), prepared according to the manufacturer's protocol (referred hereafter as EGM-2 complete media). The EBM medium and supplements were purchased from Lonza (Basel, Switzerland). All experiments using HRMECs were performed between passages 3-8. […]
After overnight incubation at 37° C., the media was changed to EGM-R media. […] The rate of BrdU incorporation was measured by the BrdU kit (Roche Biochemicals, Indianaplis, Ind., USA), according to manufacturer's instructions. The number of BrdU positive cells was counted in three independent fields per sample. […] The relative number of BrdU positive cells in the peptide-treated HRMECs was calculated as a fraction of the BrdU-incorporated HRMECs. […]

DU145 tumor xenografts = assay: Vessel density of xenograft tumors (IHC staining of CD31); assay type: in vivo, NOD SCID mice
Method: (§1) Tumor xenografts were established by subcutaneous injection of 5×10^6DU145 cells into the left and right flanks for 6-week-old female NOD SCID mice (Charles River). When tumors reaches an average volume of 100 mm^3, mice were injected intraperitoneally (IP) with saline or pNaKtide (at doses of 2 mg/kg and 10 mg/kg body weight) every other day for five times. Tumors from control and pNaKtide-treated mice were analyzed for the ability of pNaKtide to inhibit in vivo angiogenesis. The tumors were immunostained with an antibody against CD-31 to identify vessels. A goat polyclonal anti-CD31 antibody and ImmPRESS Reagent anti-goat Ig peroxidase were used. Negative controls were performed by replacing primary antibody with normal goat immunoglobulins. Then, the CD-31 positive regions were quantified using Image J, and vascularity density was calculated as the percent of tumor tissue area occupied by vessels. The production of VEGF was also evaluated by Western blotting using anti-VEGF antibody.

VEGF = VEGF expression in tumor xenograft homogenates (Western blot); assay type: in vivo, NOD SCID mice
Method: as §1

retinal vasculature = assay: Mouse model of oxygen-induced retinopathy (OIR), retinal neovascularization and vaso-obliteration; assay type: in vivo, mice (C57BL/6); conditions: intravitreous injection of 1 μl pNaKtide (0.25 μg/μl) at P12, read at P17
Method: The effects of pNaKtide on neovascularization were also assessed in a mouse model of oxygen-induced retinopathy (OIR) according to the protocol developed in the laboratory of Smith. Briefly, litters of mice pups at postnatal day (P) 7 (C57BL/6, n=9) with their mothers were exposed in a chamber (BioSpherix Proox Model 110 Hyperoxia, BioSpherix, Ltd.) to high oxygen concentrations (75%±2%) for 5 days. At P12, mice were anesthetized by intraperitoneal injection of ketamine and xylazine mixture. pNaKtide was then dissolved in PBS at 0.25 μg/μl, and intravitreal injections were performed using a microsyringe (NanoFil syringe; World Precision Instruments, Inc., Sarasota, Fla., USA). pNaKtide (1 μl) was injected into the right eye, while the left eye was served as a control. Mice were killed at P17. The eyes were harvested immediately and fixed in 4% PFA for 1 h at room temperature. The retinae were dissected under a dissection microscope and stained with lectin solution that specifically binds to endothelial cells (Isolectin B4-594, Alexa Fluor 594-I21413, Molecular Probes). Under a dissection microscope, the stained retinae were cut four incisions and flat mounted.
Images of the retinal vasculature were then obtained with Zeiss fluorescent microscope and then multiple images from the same retinae were analyzed for vascular loss and neovascularization using Photoshop and Image J software. […]

Sequence: GRKKRRQRRRPPQSATWLALSRIAGLCNRAVFQ (TAT NaKtide Fusion Polypeptide) [pNaKtide]
- angiogenic sprouting of HRMECs on Matrigel (HRMECs; 0.5 μM, 1 μM and 5 μM pNaKtide, concentration dependent): decrease in angiogenic sprouting
- concentration of maximal anti-angiogenic effect (HRMECs; Matrigel assay, HRMECs): 5 µM
- proliferation of HRMECs (BrdU positive cells) [1]: potently suppressed the proliferation
- reduction in new blood vessel formation (DU145 tumor xenografts; 10 mg/kg every two days, i.p.): 70%
- vessel density (percent of tumor area occupied by vessels) (DU145 tumor xenografts; 10 mg/kg pNaKtide group, control mice approximately 10%): approximately 2.5%
- inhibition of VEGF expression (VEGF; 10 mg/kg every two days, i.p.): about 50%
- reduction in total VEGF (VEGF; tumor homogenates, Western blot, 2 or 10 mg/kg every two days, intraperitoneally): greater than 50%
- retinal neovascularization (retinal vasculature; vs OIR control eye): decreased the amount of neovascularization
- retinal vaso-obliteration area of the total retina (retinal vasculature; vs control treatment): reduced both the neovascular and retinal vaso-obliteration area
